Here are results for two substances from article PMC10567836.

Sequences of proteins named here, by UniProt entry; tags and fusion partners are left off. A change or cut given only in a name is not applied to a line headed by its entry. Residues count along the entry.
UniProt P08575: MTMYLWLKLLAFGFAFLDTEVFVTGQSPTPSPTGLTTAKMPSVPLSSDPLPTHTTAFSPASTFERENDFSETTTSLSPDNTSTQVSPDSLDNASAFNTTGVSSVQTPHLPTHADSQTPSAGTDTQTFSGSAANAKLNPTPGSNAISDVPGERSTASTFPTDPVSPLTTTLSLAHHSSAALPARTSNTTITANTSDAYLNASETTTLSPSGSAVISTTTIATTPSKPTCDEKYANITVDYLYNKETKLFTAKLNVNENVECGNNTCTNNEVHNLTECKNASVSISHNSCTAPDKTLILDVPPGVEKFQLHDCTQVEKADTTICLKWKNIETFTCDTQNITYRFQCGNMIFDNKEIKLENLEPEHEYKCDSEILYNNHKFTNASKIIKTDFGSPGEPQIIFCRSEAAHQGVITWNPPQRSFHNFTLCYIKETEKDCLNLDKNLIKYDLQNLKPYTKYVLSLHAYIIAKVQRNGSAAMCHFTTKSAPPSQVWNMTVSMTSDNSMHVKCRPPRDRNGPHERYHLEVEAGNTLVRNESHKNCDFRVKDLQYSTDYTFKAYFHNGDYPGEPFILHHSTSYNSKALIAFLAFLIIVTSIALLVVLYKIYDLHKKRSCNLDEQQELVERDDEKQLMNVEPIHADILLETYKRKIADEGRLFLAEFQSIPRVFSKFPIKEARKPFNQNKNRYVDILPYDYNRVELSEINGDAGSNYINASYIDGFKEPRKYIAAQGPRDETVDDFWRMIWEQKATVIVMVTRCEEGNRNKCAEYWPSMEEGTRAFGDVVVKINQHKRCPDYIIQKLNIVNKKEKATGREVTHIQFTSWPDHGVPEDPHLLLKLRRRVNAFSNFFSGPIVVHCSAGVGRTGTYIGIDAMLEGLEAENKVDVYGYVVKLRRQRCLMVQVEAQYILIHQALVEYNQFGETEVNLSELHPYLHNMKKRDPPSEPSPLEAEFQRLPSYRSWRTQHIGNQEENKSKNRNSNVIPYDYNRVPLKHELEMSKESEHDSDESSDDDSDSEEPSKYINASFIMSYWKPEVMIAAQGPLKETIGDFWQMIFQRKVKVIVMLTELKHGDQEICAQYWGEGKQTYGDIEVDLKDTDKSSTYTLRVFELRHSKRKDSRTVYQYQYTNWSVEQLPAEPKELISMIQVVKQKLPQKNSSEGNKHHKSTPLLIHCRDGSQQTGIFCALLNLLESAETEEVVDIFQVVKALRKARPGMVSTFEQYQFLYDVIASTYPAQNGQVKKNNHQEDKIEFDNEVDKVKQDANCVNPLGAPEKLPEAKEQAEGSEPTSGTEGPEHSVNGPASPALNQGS
human CD45-ABC isoform on transfected mouse 300-19 cells: residues 26-1306 of P08575

No constants are given. Whether binding was seen depends on the method and setting. Some results given as binding are weak or reduced against the parent protein; the word gives no strength.

Assay [1] concerns the target T1, HCMV protein pUL11 expressed on porcine L23 cells (human cytomegalovirus (HCMV) strain Merlin) (UniProt Q6SWB9).
T1 sequence: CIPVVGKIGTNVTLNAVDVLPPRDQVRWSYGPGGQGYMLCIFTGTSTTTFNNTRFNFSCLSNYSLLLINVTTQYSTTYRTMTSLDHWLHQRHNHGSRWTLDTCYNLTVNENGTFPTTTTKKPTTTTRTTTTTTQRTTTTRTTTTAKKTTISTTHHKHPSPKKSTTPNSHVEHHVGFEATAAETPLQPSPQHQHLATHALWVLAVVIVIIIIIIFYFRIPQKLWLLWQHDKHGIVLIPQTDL
The experiment in a line: flow cytometry on cells; purified soluble CD45-His incubated with L23-E3/49K and L23-UL11 cells; bound protein detected with PE-conjugated anti-human CD45 mAb (HI30); several concentrations; only the binder purified. On the technique in general: A flow cytometer gives signals particle by particle.

Assay [2] addresses human CD45-ABC isoform on transfected mouse 300-19 cells (human) (UniProt P08575). The experiment in a line: flow cytometry on cells; purified sec49K-His (0.11 µg) or UL11-Fc (1 µg) incubated with porcine PBMC, human PBMC, 300-19 cells and 300-19-CD45-ABC cells; detected with anti-E3/49K or anti-pUL11 mAb and labelled secondary reagents; only the binder purified.

As for “Purified human CD45-His protein (soluble CD45) (from UniProt P08575 26-577) (receptor)”, in assay [1], the binding entry was “binds”.
On to “UL11-Fc fusion protein (predicted extracellular domain of pUL11 fused to the Fc domain of human IgG) (from UniProt Q6SWB9 32-224)”, for which, in assay [2], the binding result was “binds”.
